Assay results from paper doi:10.1101/2020.01.28.924043.
These are yes or no findings as the source states them, for the method shown. In cells and extracts the contact can be indirect. Some results given as binding are weak or reduced against the parent protein; the word gives no strength.

Sequences of proteins named here, by UniProt entry; tags and fusion partners are left off.
UniProt Q07157: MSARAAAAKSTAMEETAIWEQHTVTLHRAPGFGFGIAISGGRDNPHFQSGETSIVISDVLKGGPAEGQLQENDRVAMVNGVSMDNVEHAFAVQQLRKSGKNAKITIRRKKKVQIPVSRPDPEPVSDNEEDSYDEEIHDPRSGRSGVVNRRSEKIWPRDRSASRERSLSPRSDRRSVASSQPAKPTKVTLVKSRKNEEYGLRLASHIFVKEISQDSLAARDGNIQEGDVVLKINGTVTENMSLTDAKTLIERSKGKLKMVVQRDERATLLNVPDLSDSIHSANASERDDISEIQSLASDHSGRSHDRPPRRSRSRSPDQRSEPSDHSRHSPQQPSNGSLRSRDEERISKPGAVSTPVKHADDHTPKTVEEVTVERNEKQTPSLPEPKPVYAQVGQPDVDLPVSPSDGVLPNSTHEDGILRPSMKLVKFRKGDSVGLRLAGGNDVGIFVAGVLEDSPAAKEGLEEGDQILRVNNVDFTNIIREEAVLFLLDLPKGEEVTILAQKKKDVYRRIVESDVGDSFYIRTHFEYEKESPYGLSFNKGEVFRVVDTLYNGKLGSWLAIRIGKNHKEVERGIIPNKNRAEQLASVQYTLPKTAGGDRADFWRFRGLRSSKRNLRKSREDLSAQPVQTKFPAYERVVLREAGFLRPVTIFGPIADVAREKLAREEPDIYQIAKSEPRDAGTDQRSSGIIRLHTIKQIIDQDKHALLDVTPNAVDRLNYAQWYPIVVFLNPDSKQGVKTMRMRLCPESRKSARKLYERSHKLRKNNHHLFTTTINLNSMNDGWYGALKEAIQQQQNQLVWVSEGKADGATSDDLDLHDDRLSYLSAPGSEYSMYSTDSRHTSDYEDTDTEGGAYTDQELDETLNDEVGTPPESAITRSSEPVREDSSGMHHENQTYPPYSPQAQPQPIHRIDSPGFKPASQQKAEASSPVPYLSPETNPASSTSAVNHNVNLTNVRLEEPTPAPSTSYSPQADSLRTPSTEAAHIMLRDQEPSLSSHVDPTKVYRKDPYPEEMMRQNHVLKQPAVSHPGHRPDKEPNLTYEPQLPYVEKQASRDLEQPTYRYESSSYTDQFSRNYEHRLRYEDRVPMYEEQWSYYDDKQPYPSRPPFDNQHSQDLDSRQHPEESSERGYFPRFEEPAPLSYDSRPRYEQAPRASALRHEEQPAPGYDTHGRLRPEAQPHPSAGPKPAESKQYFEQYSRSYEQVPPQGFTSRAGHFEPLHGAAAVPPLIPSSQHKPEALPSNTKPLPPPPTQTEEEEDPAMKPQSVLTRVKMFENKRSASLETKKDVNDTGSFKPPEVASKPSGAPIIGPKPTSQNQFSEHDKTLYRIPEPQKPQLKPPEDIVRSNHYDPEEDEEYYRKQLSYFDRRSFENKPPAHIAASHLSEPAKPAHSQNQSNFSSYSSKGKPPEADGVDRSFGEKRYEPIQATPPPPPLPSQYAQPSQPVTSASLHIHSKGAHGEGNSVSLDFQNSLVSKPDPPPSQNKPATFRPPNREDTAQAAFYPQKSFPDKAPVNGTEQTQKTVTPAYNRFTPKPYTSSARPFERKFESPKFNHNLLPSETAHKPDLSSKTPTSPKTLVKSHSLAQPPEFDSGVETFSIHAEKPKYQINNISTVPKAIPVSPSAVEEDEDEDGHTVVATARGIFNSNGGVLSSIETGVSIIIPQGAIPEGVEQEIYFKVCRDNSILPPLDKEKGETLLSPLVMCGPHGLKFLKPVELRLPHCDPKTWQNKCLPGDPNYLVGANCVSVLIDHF

Biological target: zonula occludin-1 (ZO-1) (human (endogenous in HCMEC/D3)) (UniProt Q07157)
Test: co-IP

spectrin-αII (from UniProt Q13813 1-2472)
binding: binds

B1: adducin-γ (ADD3) (protein, UniProt Q9UEY8 1-706)
chain: MSSDASQGVITTPPPPSMPHKERYFDRINENDPEYIRERNMSPDLRQDFNMMEQRKRVTQILQSPAFREDLECLIQEQMKKGHNPTGLLALQQIADYIMANSFSGFSSPPLSLGMVTPINDLPGADTSSYVKGEKLTRCKLASLYRLVDLFGWAHLANTYISVRISKEQDHIIIIPRGLSFSEATASNLVKVNIIGEVVDQGSTNLKIDHTGFSPHAAIYSTRPDVKCVIHIHTLATAAVSSMKCGILPISQESLLLGDVAYYDYQGSLEEQEERIQLQKVLGPSCKVLVLRNHGVVALGETLEEAFHYIFNVQLACEIQVQALAGAGGVDNLHVLDFQKYKAFTYTVAASGGGGVNMGSHQKWKVGEIEFEGLMRTLDNLGYRTGYAYRHPLIREKPRHKSDVEIPATVTAFSFEDDTVPLSPLKYMAQRQQREKTRWLNSPNTYMKVNVPEESRNGETSPRTKITWMKAEDSSKVSGGTPIKIEDPNQFVPLNTNPNEVLEKRNKIREQNRYDLKTAGPQSQLLAGIVVDKPPSTMQFEDDDHGPPAPPNPFSHLTEGELEEYKRTIERKQQGLEDAEQELLSDDASSVSQIQSQTQSPQNVPEKLEENHELFSKSFISMEVPVMVVNGKDDMHDVEDELAKRVSRLSTSTTIENIEITIKSPEKIEEVLSPEGSPSKSPSKKKKKFRTPSFLKKNKKKEKVEA
binding: binds
